{"sequences": {"note": "Sequences of proteins named here, by UniProt entry; tags and fusion partners are left off. Residues count along the entry.", "UniProt Q13616, 411-776 limits assumed, chain 1 of 2": "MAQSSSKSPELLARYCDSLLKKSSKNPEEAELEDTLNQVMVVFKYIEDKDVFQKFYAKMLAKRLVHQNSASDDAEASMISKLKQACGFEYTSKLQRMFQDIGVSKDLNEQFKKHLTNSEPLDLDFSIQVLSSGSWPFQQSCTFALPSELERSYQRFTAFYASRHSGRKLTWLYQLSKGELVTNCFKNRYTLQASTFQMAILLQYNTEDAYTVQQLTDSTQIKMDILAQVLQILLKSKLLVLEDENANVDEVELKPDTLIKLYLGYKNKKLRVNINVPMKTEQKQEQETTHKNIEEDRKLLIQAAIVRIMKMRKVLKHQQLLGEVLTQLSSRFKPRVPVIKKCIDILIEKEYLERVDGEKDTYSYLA", "hCul1^ctd-hRbx1, UniProt P62877, 5-108 limits assumed, chain 2 of 2": "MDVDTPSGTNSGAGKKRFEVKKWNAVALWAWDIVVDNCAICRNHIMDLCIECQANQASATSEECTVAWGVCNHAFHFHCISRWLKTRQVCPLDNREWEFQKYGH"}, "source": "patent US20140179593A1", "about": "(published 2014)", "key": {"hCul1^ctd-hRbx1 [1]": {"biological_target": "T1, hCul1^ctd-hRbx1 (Homo sapiens, UniProt Q13616 411-776; P62877 5-108, limits assumed)", "T1 construct": "Complex of the C-terminal domain of human Cul1 with Rbx1; also called hCul1^ctd-Rbx1; Cul1^CTD-Rbx1", "test": "ITC, hDcn1^P injected into hCul1^ctd-hRbx1", "description": "(§1) Protein samples were buffer matched by desalting over a NAP-5 column (GE Healthcare) into 50 mM Hepes, 125 mM NaCl, 1 mM BME, pH 7.0 (ITC buffer). Peptides were dissolved by weight to a final concentration of 10 mM in ITC buffer and diluted further in ITC buffer as required for the experiments. […] The peptide ligands (4 mM) were constantly injected (1.5 μl). The interval time between each injection was 3 minutes and the duration of each injection was 3 seconds. […] Peptide ligands (250 μM) were constantly injected (2.5 μl). The interval time between each injection was three minutes and the duration of each injection was 5 seconds. […] The interval time between each injection was 3 minutes and the duration of each injection was 5 seconds. Obtained spectra were evaluated using Origin (V 7.0) to determine heats of binding and Kd values."}, "hCul1^ctd-hRbx1 [2]": {"biological_target": "T1, hCul1^ctd-hRbx1", "test": "ITC; the reference value of the yeast pair is cited", "description": "as §1"}}, "data": [{"binder": "hDcn1^P (residues 62 to the C-terminal residue 259 of hDcn1, aka SCCRO or DCUN1D1) (other, Expressed as a GST fusion in E. coli; GST released by TEV protease; also called DCUN1D1^P; PONY domain of hDcn1) RKKLEQLYNRYKDPQDENKIGIDGIQQFCDDLALDPASISVLIIAWKFRAATQCEFSKQEFMDGMTELGCDSIEKLKAQIPKMEQELKEPGRFKDFYQFTFNFAKNPGQKGLDLEMAIAYWNLVLNGRFKFLDLWNKFLLEHHKRSIPKDTWNLLLDFSTMIADDMSNYDEEGAWPVLIDDFVEFARPQIAGTKSTTV", "values": [{"measurement": "Kd", "setting": "hCul1^ctd-hRbx1 [1]", "value": 1000, "unit": "nM"}, {"measurement": "fold worse Kd than the yeast counterparts (yCul1^C+-yRbx1:yDcn1^P)", "setting": "hCul1^ctd-hRbx1 [2]", "value": "~30", "unit": "fold"}]}]}
